These are yes or no findings as the source states them, for the method shown. Binding seen in cells or lysates may run through a third protein. A yes stands for co-enrichment or nearness to the bait. Other partners may have been found. For some assays here: No binding means not detected with the bait.
T1: Rps6a-TAP (S. cerevisiae) (UniProt P0CX37)
T1 sequence: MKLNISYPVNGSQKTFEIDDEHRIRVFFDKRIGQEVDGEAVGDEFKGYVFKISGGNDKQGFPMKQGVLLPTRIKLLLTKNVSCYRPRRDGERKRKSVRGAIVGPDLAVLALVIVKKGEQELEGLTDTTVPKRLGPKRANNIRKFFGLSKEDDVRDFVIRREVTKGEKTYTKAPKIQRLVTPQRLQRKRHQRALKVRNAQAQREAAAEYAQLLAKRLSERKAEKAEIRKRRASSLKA

Protein sequences, listed by entry. Tags and fused reporters are not part of them.
UniProt P25293: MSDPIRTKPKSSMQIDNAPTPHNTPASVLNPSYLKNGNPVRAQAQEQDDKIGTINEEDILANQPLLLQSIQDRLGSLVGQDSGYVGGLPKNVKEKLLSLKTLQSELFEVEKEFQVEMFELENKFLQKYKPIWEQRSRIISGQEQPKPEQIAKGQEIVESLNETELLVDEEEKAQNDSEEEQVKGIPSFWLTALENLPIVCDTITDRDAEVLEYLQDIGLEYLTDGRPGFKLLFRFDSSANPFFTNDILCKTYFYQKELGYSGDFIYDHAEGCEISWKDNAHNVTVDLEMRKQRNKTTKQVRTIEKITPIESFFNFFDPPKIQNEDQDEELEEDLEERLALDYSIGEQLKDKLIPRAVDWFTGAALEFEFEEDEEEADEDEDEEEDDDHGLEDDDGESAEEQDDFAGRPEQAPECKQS
UniProt P53067: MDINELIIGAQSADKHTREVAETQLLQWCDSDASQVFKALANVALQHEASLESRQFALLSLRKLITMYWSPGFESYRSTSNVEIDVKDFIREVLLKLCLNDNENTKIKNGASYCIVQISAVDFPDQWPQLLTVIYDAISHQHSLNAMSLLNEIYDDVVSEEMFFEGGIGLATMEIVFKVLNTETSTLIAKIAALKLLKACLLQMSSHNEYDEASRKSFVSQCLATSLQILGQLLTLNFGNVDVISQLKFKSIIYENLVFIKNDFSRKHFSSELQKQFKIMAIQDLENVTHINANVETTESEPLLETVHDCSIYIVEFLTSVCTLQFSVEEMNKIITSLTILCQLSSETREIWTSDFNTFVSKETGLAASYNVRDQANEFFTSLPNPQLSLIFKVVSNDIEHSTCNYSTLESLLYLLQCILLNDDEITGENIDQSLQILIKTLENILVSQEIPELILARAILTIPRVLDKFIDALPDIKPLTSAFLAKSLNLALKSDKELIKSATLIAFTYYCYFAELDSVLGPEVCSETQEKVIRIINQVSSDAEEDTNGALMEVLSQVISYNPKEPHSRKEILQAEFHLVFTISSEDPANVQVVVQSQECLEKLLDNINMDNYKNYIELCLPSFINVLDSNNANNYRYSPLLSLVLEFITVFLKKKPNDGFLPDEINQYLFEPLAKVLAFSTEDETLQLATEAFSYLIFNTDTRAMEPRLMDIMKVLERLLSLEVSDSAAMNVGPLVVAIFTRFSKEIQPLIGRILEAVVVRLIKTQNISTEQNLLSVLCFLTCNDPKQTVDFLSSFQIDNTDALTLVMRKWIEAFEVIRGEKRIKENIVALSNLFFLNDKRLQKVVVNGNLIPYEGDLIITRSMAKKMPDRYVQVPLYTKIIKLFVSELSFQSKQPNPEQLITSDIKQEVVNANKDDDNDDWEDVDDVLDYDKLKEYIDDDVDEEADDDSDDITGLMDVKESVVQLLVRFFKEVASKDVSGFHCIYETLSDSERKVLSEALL
UniProt Q12692: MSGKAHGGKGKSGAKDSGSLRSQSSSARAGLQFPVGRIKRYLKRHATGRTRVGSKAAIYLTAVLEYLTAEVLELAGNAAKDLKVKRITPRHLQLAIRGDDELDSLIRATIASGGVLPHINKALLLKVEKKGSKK
UniProt Q02821: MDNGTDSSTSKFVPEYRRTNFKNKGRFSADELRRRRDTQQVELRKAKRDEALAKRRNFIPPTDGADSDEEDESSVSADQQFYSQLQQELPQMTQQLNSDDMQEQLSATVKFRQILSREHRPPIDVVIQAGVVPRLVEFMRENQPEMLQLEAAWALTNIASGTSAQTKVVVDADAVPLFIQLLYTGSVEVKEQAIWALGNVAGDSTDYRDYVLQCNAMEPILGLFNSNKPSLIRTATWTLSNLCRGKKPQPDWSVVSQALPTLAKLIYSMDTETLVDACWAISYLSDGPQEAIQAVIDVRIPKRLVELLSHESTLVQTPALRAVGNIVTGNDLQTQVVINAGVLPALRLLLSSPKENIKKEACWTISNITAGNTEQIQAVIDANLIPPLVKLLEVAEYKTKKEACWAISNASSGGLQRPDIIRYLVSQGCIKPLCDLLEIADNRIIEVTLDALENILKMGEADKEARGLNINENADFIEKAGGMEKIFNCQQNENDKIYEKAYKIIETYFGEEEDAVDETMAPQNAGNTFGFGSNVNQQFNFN

T2: Rps3-TAP (S. cerevisiae) (UniProt P05750)
T2 sequence: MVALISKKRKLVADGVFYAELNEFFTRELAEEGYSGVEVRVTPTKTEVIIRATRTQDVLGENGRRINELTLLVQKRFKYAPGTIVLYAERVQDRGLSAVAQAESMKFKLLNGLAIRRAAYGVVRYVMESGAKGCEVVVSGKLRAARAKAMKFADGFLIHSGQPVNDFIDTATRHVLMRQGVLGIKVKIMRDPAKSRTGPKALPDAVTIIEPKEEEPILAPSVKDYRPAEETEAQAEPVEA

B1: Yar1 (protein, UniProt P46683 1-200)
chain: MGLHSEPLDQEDQDTIILDARAGDLDSLKDIFTTLVSPELLSTCKESESDSTALHMAAANGHIETVRYILETVSRANSAEDLKAFVNEVNKTGNTALHWASLNGKLDVVKLLCDEYEADPFIRNKFGHDAIFEAENSGKEEVETYFLKKYDVEPEDDEEDTQTEGKNSVQITKGTEIEQVTKEATEALREETEKLNINKD
B2: Kap123 (protein, UniProt P40069 1-1113)
chain: MDQQFLSQLEQTLHAITSGVGLKEATKTLQTQFYTQPTTLPALIHILQNGSDDSLKQLAGVEARKLVSKHWNAIDESTRASIKTSLLQTAFSEPKENVRHSNARVIASIGTEELDGNKWPDLVPNLIQTASGEDVQTRQTAIFILFSLLEDFTSSLSGHIDDFLALFSQTINDPSSLEIRSLSAQALNHVSALIEEQETINPVQAQKFAASIPSVVNVLDAVIKADDTMNAKLIFNCLNDFLLLDSQLTGNFIVDLIKLSLQIAVNSEIDEDVRVFALQFIISSLSYRKSKVSQSKLGPEITVAALKVACEEIDVDDELNNEDETGENEENTPSSSAIRLLAFASSELPPSQVASVIVEHIPAMLQSANVFERRAILLAISVAVTGSPDYILSQFDKIIPATINGLKDTEPIVKLAALKCIHQLTTDLQDEVAKFHEEYLPLIIDIIDSAKNIVIYNYATVALDGLLEFIAYDAIAKYLDPLMNKLFYMLESNESSKLRCAVVSAIGSAAFAAGSAFIPYFKTSVHYLEKFIQNCSQIEGMSEDDIELRANTFENISTMARAVRSDAFAEFAEPLVNSAYEAIKTDSARLRESGYAFIANLAKVYGENFAPFLKTILPEIFKTLELDEYQFNFDGDAEDLAAFADSANEEELQNKFTVNTGISYEKEVASAALSELALGTKEHFLPYVEQSLKVLNEQVDESYGLRETALNTIWNVVKSVLLASKVEPESYPKGIPASSYVNADVLAVIQAARETSMGNLSDEFETSMVITVMEDFANMIKQFGAIIIMDNGDSSMLEALCMQVLSVLKGTHTCQTIDIEEDVPRDEELDASETEATLQDVALEVLVSLSQALAGDFAKVFDNFRPVVFGLFQSKSKNKRSSAVGAASELALGMKEQNPFVHEMLEALVIRLTSDKSLEVRGNAAYGVGLLCEYASMDISAVYEPVLKALYELLSAADQKALAAEDDEATREIIDRAYANASGCVARMALKNSALVPLEQTVPALLAHLPLNTGFEEYNPIFELIMKLYQENSPVITNETPRIIEIFSAVFTKENDRIKLEKESTLGREENMERLKQFQTEEMKHKVIELLKYLNTTYNGIVAQNPVLAAVIA
B3: Gin4 (enzyme, UniProt Q12263 1-1142)
chain: MAINGNSIPAIKDNTIGPWKLGETLGLGSTGKVQLARNGSTGQEAAVKVISKAVFNTGNVSGTSIVGSTTPDALPYGIEREIIIMKLLNHPNVLRLYDVWETNTDLYLVLEYAEKGELFNLLVERGPLPEHEAIRFFRQIIIGVSYCHALGIVHRDLKPENLLLDHKYNIKIADFGMAALETEGKLLETSCGSPHYAAPEIVSGIPYQGFASDVWSCGVILFALLTGRLPFDEEDGNIRTLLLKVQKGEFEMPSDDEISREAQDLIRKILTVDPERRIKTRDILKHPLLQKYPSIRDSKSIRGLPREDTYLTPLSESNSSIDATILQNLVILWHGRDPEGIKEKLREPGANAEKTLYALLYRFKCDTQKELIKQQQVKKRQSISSVSVSPSKKVSTTPQRRRNRESLISVTSSRKKPISFNKFTASSASSSNLTTPGSSKRLSKNFSSKKKLSTIVNQSSPTPASRNKRASVINVEKNQKRASIFSTTKKNKRSSRSIKRMSLIPSMKRESVTTKLMSTYAKLAEDDDWEYIEKETKRTSSNFATLIDEIFEYEKYEQIRKEKEELERKVREAKAREELERRRRKQEEKERARKLLEKEDLKRKQEELKKQIEIDISDLEQELSKHKEEKLDGNIRSISAPMENEEKNINHLEVDIDNILRRRNFSLQTRPVSRLDPGIMFSSPTEEVSPVEPKRTENERLTTEKKILETIRRSKFLGSSFNIDKELKLSKMEYPSIIAPQRLSEERVVSDSNDGYESLILPKDGNGVSQLKDSTATTAPVSDGRLRKISEIRVPQFTRKSRHFSESNKRLSVLSMYSTKESFTNLVDILKNGNLDVNNQQSQRIPTPRSADDSEFLFETVNEEAEYTGNSSNDERLYDVGDSTIKDKSALKLNFADRFNGSNEAKQTDNLHLPILPPLNGDNELRKQNSQEGDQAHPKIKSMIPESGSSSHTEKEEENEEKEEKKPEQHKQEEDQEKREKVVDDMEPPLNKSVQKIREKNAGSQAKDHSKDHLKEHKQDKNTAIGNGSFFRKFSKSSDKTMELYAKISAKQLFNGLEKLLRGWTQYGLKNIKSHPNNLTLTGKLSSDNIFSLRSTLFEVNIYPRGKMSVVQFKKVSGSFKAVKKLVNEVENVLNKEGVLQK
B4: Kcc4 (enzyme, UniProt P25389 1-1037)
chain: MTVANTETHSAAKPSSTIGPWKLGETLGFGSTGKVQLAQHERTGHRTAVKVISKSIFNNNGNHSNDDSVLPYNIEREIVIMKLLSHPNVLSLYDVWETNNNLYLILEYAEKGELFNLLVDHGPLPEREAINCFRQIIIGISYCHALGIVHRDLKPENLLLDSFYNIKIADFGMAALQTDADLLETSCGSPHYAAPEIVSGLPYEGFASDVWSCGVILFALLTGRLPFDEENGNVRDLLLKVQKGQFEMPNDTEISRDAQDLIGKILVVDPRQRIKIRDILSHPLLKKYQTIKDSKSIKDLPRENTYLYPLADSNNHTSASIDDSILQNLVVLWHGRHADDIVSKLKENGTNKEKILYALLYRFKLDSVRGSNKKNRNKIKKTKKNKRSSTLSSSSSLLLNNRSIQSTPRRRTSKRHSREFSSSRKRSSFLLSSNPTDSSPIPLRSSKRITHINVASANTQATPSGVPNPHKRNSKKRSSKRLSYMPNTKRSSLTSKSLSNFTNLIDDDDWEYIEKDAKRTSSNFATLIDEIFEPEKFELAKREKAELQRKVQEAKRQSVNAQKINEDEFGSEVSDGMKELKKINDKVSSPLINYEFSQQELLQDIDTLLTNRYQLSSYTRPISRLDPGLTPVTETLPNNLKEKTALLQDTEKKIIETIRRSKFLGSLLNVRGGLSPGKSELAPIEESPIVSTTPLIYNDRMEPRRISDVEVPHFTRKSKHFTTANNRRSVLSLYAKDSIKDLNEFLIKEDPDLPPQGSTDNESRSEDPEIAESITDSRNIQYDEDDSKDGDNVNNDNILSDFPQGVGISQEYDMKDKNPNQSPISKSAEPTLVVKLPSLSSFQGKNASGLGLYQREPSKVTLPSLTSNNSSVGENIEDGAEKGTESEKIAASLSDDDLKEDNDKKDNDTVNAPTTVKKPPNSVLLKKFSKGKILELEIHAKIPEKRLYEGLHKLLEGWKQYGLKNLVFNITNMIITGKLVNDSILFLRSTLFEIMVLPNGDGRSLIKFNKKTGSTKTLTKLATEIQIILQKEGVLDK
B5: Nba1 (protein, UniProt Q08229 1-501)
chain: MSEEREENGISRATLNTQRLSAMIDSLNNEKDDRLFPSPTTTRTMITEEKADQSDVFKPPSRLLRSPAGDVSLPPGDNRSSMISNYSGIIQEGVEVSYVVKNRQQTQERRTSKDSNSLYSLKEPVSKNELPSLPMLPSEATLTKHLSDNQSTKSNTNADEIVIKPVTNAKPVGRFNSNTSKKVEGRGSLKLLSSPLRQEKVMRSSIGSGNLASESGSSTYNTKFHQSIQEQLEEEEEGNVSDKLSIVSSVIPELYTTTNEAPKAINPIRSETNDYNPTIPPRSKDRPRSRLFIEEGDGEGDLLTEEILPTPVQPGGHYKNSSQISTVSEQKSESYYSAATSMPPEEETYLTRPLPSTPNEDSRVTSNLKRDDTLKAIHDRANHTSTSTNKQDDDMYEDIIEETPKKTKLKKDTKKKLNKKKSVKELRSFDIDTLNQLLSVTKGTLIGSEFAQLGMKIEEKRALERLVDSLSRLTADMVLDPDRYEEGLKRLDKATKALEGF
B6: Kri1 (protein, UniProt P42846 1-591)
chain: MPRKKSAAKRAREQAKKEAAVPATDTATIKTSETSATTVKPAIEASKSYVPSEDEEEDEEEEEEEDDYGELITDEVENGINQVLDAIKNNKTDKLLDPKVKFFEDPESAAAKLANREGKHKPIYLKDYHRMNILSGDALKEDDEEYEHATVDGKQSFVSQQREEKTQLLNEIKSAFSDEENEESSGDEDDGFLKKKEPSTKKEGKNLPDPTVNEENFLEEFVNQQAWIPKKGDKVISLDLNNNEEDDEEFEDAAEKFENAYNFRYEDPNAAEIISYARSQATLRRSDDSSRRRKREEKRKIKEQIKAEKETALQKKKTKKLNKLTDILEQLTKEYGAEINADMVKKITDTLLKNDFKEEEWDNVVAELFNEEFYQQEGKPTWNEDDEIMGDFYADADGDDQTEEGEVEKEQKEEDEEEGPKRKKSKKEEKLQKKKEKRKVNELVENALEQNKLALIEEVEKEEEERKSRSRTKEEQDLKFRYREVSPESFGLTAREIFAADDTDLNEFIGLKKFAPYRSKELRAKDKRKVMKARRLREWRKKTFKNENGLAPVEAEAGEKDEDTILIPVEKASKSKHKRGHSHKHKGHQKK

Assays:
[1] = target: T1, Rps6a-TAP (S. cerevisiae); assay: affinity purification with mass spectrometry; C-terminally TAP-tagged 40S r-protein as bait; tandem-affinity purification (IgG Sepharose, TEV elution, Calmodulin Sepharose) from yeast lysate in 50 mM Tris-HCl pH 7.5, 100 mM NaCl, 1.5 mM MgCl2, 0.1% NP-40, 1 mM DTT; label-free semi-quantitative LC-MS/MS, intensities plotted against the mean of all purifications
Nap1-TAP (S. cerevisiae) = Nap1-TAP (S. cerevisiae) (UniProt P25293); assay: affinity purification with mass spectrometry; Nap1-TAP purified from a Nap1-TAP Rps6a-Flag yeast strain (standard TAP, and Rps6a-Flag depleted pool); LC-MS/MS of eluates and mass spectrometry of Coomassie-stained gel bands
Rps3-TAP (S. cerevisiae) = target: T2, Rps3-TAP (S. cerevisiae); assay: affinity purification with mass spectrometry; C-terminally TAP-tagged 40S r-protein as bait; tandem-affinity purification (IgG Sepharose, TEV elution, Calmodulin Sepharose) from yeast lysate in 50 mM Tris-HCl pH 7.5, 100 mM NaCl, 1.5 mM MgCl2, 0.1% NP-40, 1 mM DTT; label-free semi-quantitative LC-MS/MS, intensities plotted against the mean of all purifications
[2] = target: Rps14b-TAP (S. cerevisiae) (UniProt P39516); assay: as above

| Molecule | binding [1] | binding (Nap1-TAP (S. cerevisiae)) | also measured |
| --- | --- | --- | --- |
| Kap114 (from UniProt P53067 1-1004) | no binding | – | – |
| Htz1 (from UniProt Q12692 1-134) | – | binds | – |
| Nap1 (endogenous) (from UniProt P25293 1-417) | binds | – | – |
| Kap60 (from UniProt Q02821 1-542) | – | – | binding (Rps3-TAP (S. cerevisiae)): binds |
| B1 | – | – | binding (Rps3-TAP (S. cerevisiae)): binds |
| B2 | binds weakly | binds weakly | – |
| B3 | – | binds | – |
| B4 | – | binds | – |
| B5 | – | binds | – |
| B6 | – | – | binding [2]: binds |

— publication PMC6648895
